Source: the supplement of paper PMC10735217
Structures can show the parent of a compound that is named as a salt. The list shows a part of the results. Repeats in this data set agree poorly, so a single value says little.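 The human kidney-derived cells carry a stably integrated construct of eight TEAD-binding elements driving luciferase, read by luminescence in a drug-repurposing library screen. A compound counts as a hit when its signal is more than five robust Z scores above the plate mean.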

Tested on: HEK293A TEAD-LUC reporter
Test: TEAD-luciferase reporter activity (YAP activation), robust Z score vs plate; higher = stronger YAP/TEAD activation
Details: 24 h

Row | Compound | TEAD-luciferase reporter activity (compound concentration: 200 nM) | TEAD-luciferase reporter activity (compound concentration: 2 uM) | TEAD-luciferase reporter activity (compound concentration: 10 uM)
1 | O=C(O)c1ccccc1OP(=O)(O)O [fosfosal] | inactive: -0.904 | inactive: -0.925 | inactive: -0.696
2 | Nc1nc(N)c2nc(CCc3ccc(C(=O)N[C@@H](CCC(=O)O)C(=O)O)cc3)cnc2n1 [10-Deazaaminopterin] | inactive: -1.79 | inactive: -1.09 | inactive: -0.552
3 | CC(C)(O)c1ccccc1CC[C@@H](SCC1(CC(=O)[O-])CC1)c1cccc(/C=C/c2ccc3sc(Cl)c(Cl)c3n2)c1 | inactive: -1.29 | inactive: -0.115 | inactive: 0.113
4 | COc1ccc(C2CNC(=O)C2)cc1OCCCN1CCC(C(=O)c2ccc(F)cc2)CC1 (stereo not given) | inactive: -0.789 | inactive: 1.85 | inactive: 1.44
5 | COc1ccc2c(c1)C=C1Cn3c-2c(C2CCCCC2)c2ccc(cc23)C(=O)NS(=O)(=O)N(C)CCOCCN(C)C1=O | inactive: 0.106 | inactive: 0.26 | inactive: -0.706
6 | CCOC(=O)c1cccnc1 | inactive: -1.79 | inactive: -0.0438 | inactive: -0.0341
7 | CN1CCC(=C2c3ccccc3CSc3sccc32)CC1 | inactive: -1.46 | inactive: 0.286 | inactive: -0.648
8 | CN(C)CCCN1c2ccccc2CCc2ccc(Cl)cc21 [Clomipramine] | inactive: -0.0554 | inactive: 3.35 | inactive: 2.65
9 | CCN1CC(CCN2CCOCC2)C(c2ccccc2)(c2ccccc2)C1=O (stereo not given) | inactive: 0.0255 |  | inactive: 0.125
10 | CCN1CC(CCN2CCOCC2)C(c2ccccc2)(c2ccccc2)C1=O (stereo not given) [doxapram hydrochloride hydrate] |  | inactive: 0.159 | 
11 | CC(C)(C)c1cc(CCCOCc2cccnc2)cc(C(C)(C)C)c1O [Nicanartine] | inactive: 2.08 | inactive: -0.755 | inactive: 3.12
12 | CC1=C(C(=O)OCCN(Cc2ccccc2)c2ccccc2)C(c2cccc([N+](=O)[O-])c2)C(P2(=O)OCC(C)(C)CO2)=C(C)N1 (stereo not given) [efonidipine] | inactive: -0.433 | inactive: 0.913 | inactive: -1.11
13 | COc1ccc2[nH]cc(CCNC(=O)c3cc(=O)cco3)c2c1 [Piromelatine] | inactive: -0.298 | inactive: 1.68 | inactive: 1.6
14 | Nc1nncs1 [Aminothiadiazole] | inactive: -2.81 | inactive: -0.149 | inactive: -0.399
15 | CC(=O)N(O)CCCCCNC(=O)CCC(=O)N(O)CCCCCNC(=O)CCC(=O)N(O)CCCCCN [Deferoxamine Mesylate] | inactive: -0.0427 |  | inactive: -0.917
16 | CC(=O)N(O)CCCCCNC(=O)CCC(=O)N(O)CCCCCNC(=O)CCC(=O)N(O)CCCCCN [deferoxamine, Sanomune] |  | inactive: -1.02 | 
17 | CC(C)Nc1cccnc1N1CCN(C(=O)c2cc3cc(O)ccc3[nH]2)CC1 | inactive: -2.49 | inactive: -1.15 | inactive: -0.238

Row | Compound | TEAD-luciferase reporter activity (compound concentration: 200 nM) | TEAD-luciferase reporter activity (compound concentration: 2 uM) | TEAD-luciferase reporter activity (compound concentration: 10 uM)
18 | CNC(=O)c1cccc(NCC(=O)NCCc2ccc(OC)c(OC)c2)c1 | inactive: -1.5 |  | inactive: 0.562
19 | CNC(=O)c1cccc(NCC(=O)NCCc2ccc(OC)c(OC)c2)c1 [Ecabapide] |  | inactive: 0.781 | 
20 | COc1ccc(CCNC(=O)C(Cc2c[nH]c3ccccc23)NC(C)=O)cc1 (stereo not given) | inactive: -1.76 | inactive: -0.394 | inactive: -1.66
21 | CC1(C)C=C(c2cccc[n+]2[O-])c2cc(C(F)(F)C(F)(F)F)ccc2C1=O | inactive: -1.61 | inactive: -2.45 | inactive: -0.98
22 | Cc1c(O)cccc1C(=O)N[C@@H](CSc1ccccc1)[C@H](O)CN1C[C@H]2CCCC[C@H]2C[C@H]1C(=O)NC(C)(C)C [nelfinavir mesylate] |  | inactive: -0.642 | 
23 | Cc1c(O)cccc1C(=O)N[C@@H](CSc1ccccc1)[C@H](O)CN1C[C@H]2CCCC[C@H]2C[C@H]1C(=O)NC(C)(C)C | inactive: -1.84 |  | inactive: -0.718
24 | CN(C)CCC(Sc1cccc2ccccc12)c1cccs1 (stereo not given) | inactive: -0.832 | inactive: -0.549 | inactive: -1.02
25 | N=C(N)NCCC[C@H](NC(=O)[C@@H]1CC2CCCCC2N1C(=O)[C@H]1Cc2ccccc2CN1C(=O)[C@H](CO)NC(=O)[C@H](Cc1cccs1)NC(=O)CNC(=O)[C@@H]1C[C@@H](O)CN1C(=O)[C@@H]1CCCN1C(=O)[C@@H](CCCNC(=N)N)NC(=O)[C@@H](N)CCCNC(=N)N)C(=O)O (stereo not given in full) [icatibant] | inactive: 0.581 | inactive: 0.398 | inactive: 0.976
26 | C=C[C@]1(C)C[C@@H](O)[C@]2(C)C(C)CCC3(CCC(=O)C32)[C@@H](C)[C@@H]1O (stereo not given in full) | inactive: 1.12 | inactive: -1.66 | inactive: -1.13
27 | COC(=O)c1cn(C2CC2)c2c(OC(F)F)c(-c3ccc4c(c3)CN[C@@H]4C)ccc2c1=O | inactive: -1.04 | inactive: 0.385 | inactive: -0.667
28 | Cc1ccc(S(=O)(=O)NC(C(=O)O)C(C)C)cc1 (stereo not given) | inactive: -1.01 | inactive: -0.78 | inactive: -1.07
29 | CC(C)[C@H](NC(=O)[C@H](CC(=O)O)NC(=O)CCCOc1ccc(C(=N)N)cc1)C(=O)O | inactive: -1.07 | inactive: 2.22 | inactive: -0.125
30 | CCCn1c(C(C)N2CCN(S(=O)(=O)c3ccc(Br)cc3)CC2)nc2ccccc2c1=O (stereo not given) | inactive: 0.171 | inactive: 0.0187 | inactive: -1.72
31 | N=C(N)Nc1ccc(C(=O)Oc2ccc(S(N)(=O)=O)cc2)cc1 | inactive: -0.558 | inactive: 0.273 | inactive: -0.337
32 | CC(=O)c1ccc2c(c1)N(CC(C)N(C)C)c1ccccc1S2 (stereo not given) | inactive: -1.33 | inactive: 1.64 | inactive: 0.831
33 | C1CCC2=NCCCN2CC1 | inactive: 0.00386 | inactive: -0.775 | inactive: -0.00154
34 | CCCn1nc(C(C)C)c(C(=O)O)c1Cc1ccc(-c2ccccc2-c2nnn[nH]2)cc1 | inactive: -0.938 | inactive: -0.747 | inactive: -0.347

Limited to TEAD-luciferase reporter activity (compound concentration: 10 uM) and TEAD-luciferase reporter activity (compound concentration: 2 uM), for some of the entries so far:

| Row | Compound | TEAD-luciferase reporter activity (compound concentration: 10 uM) | TEAD-luciferase reporter activity (compound concentration: 2 uM) |
| --- | --- | --- | --- |
| 26 | C=C[C@]1(C)C[C@@H](O)[C@]2(C)C(C)CCC3(CCC(=O)C32)[C@@H](C)[C@@H]1O (stereo not given in full) | inactive: -1.13 | inactive: -1.66 |
| 27 | COC(=O)c1cn(C2CC2)c2c(OC(F)F)c(-c3ccc4c(c3)CN[C@@H]4C)ccc2c1=O | inactive: -0.667 | inactive: 0.385 |
